Some entries share one result that the patent states for a list of compounds. For at least one compound, name, drawing or mass did not settle the structure.
Tested on: BACE1 promoter
Assay: BACE1 promoter activity, BACE1 promoter-luciferase vector, Dual-Luciferase assay
Assay type: cell-based, human
Settings: SH-SY5Y transfected with BACE1 promoter-luciferase vector, 10 μM for 24 hours
Procedure: A BACE1 promoter-luciferase vector was transfected to brain nerve cells (SH-SY5Y). […] A change in a BACE1 promoter activity was measured using a Dual-Luciferase assay kit.

CCN(CC)C(=S)SSC(=S)N(CC)CC [disulfuram]
decrease of BACE1 promoter activity: ≥ 50%

Reference: US9549942B2, “Composition for preventing or treating degenerative brain diseases including compound downregulating expression of BACE1 proteins” (RESEARCH & BUSINESS FOUNDATION SUNGKYUNKWAN UNIVERSITY, priority 2013, dated 2017)
